At least one peptide structure holds a part that was inferred or is arguable (an end, a ring closure or a residue). Peptide text beside a SMILES is read from it.
Test system: A. castellani
Assay: Sensitivity of protozoa: minimal concentration that physically disrupts (osmotic swelling)
Type: cell-based
Conditions: physical disruption

| SMILES | Minimal Disruptive Concentration |
| --- | --- |
| CC[C@H](C)[C@H](NC(=O)[C@H](CCCCN)NC(=O)[C@H](CC(C)C)NC(=O)[C@H](C)NC(=O)[C@H](C)NC(=O)[C@H](CCCCN)NC(=O)[C@H](CC(C)C)NC(=O)[C@H](C)NC(=O)[C@H](CC(C)C)NC(=O)CNC(=O)[C@H](CC(C)C)NC(=O)[C@H](Cc1ccccc1)NC(=O)[C@H](CO)NC(=O)CNC(=O)[C@H](Cc1ccccc1)NC(=O)CN)C(=O)NCC(=O)N[C@@H](C)C(=O)N[C@@H](CC(N)=O)C(=O)N[C@@H](C)C(=O)N[C@@H](CC(C)C)C(=O)NCC(=O)NCC(=O)N[C@@H](C)C(=O)N1CCC[C@H]1C(=O)N[C@@H](CCC(N)=O)C(=O)N[C@@H](CCC(N)=O)C(=O)O [CPF (I)] (H-GFGSFLGLALKAALKIGANALGGAPQQ-OH) | 2 µg/mL |
| CC[C@H](C)[C@H](NC(=O)[C@H](CCCCN)NC(=O)[C@H](CC(C)C)NC(=O)[C@H](C)NC(=O)[C@H](C)NC(=O)[C@H](CCCCN)NC(=O)[C@H](CC(C)C)NC(=O)[C@H](C)NC(=O)[C@H](CCCCN)NC(=O)CNC(=O)[C@H](CC(C)C)NC(=O)[C@H](Cc1ccccc1)NC(=O)[C@H](CO)NC(=O)[C@H](C)NC(=O)[C@H](Cc1ccccc1)NC(=O)CN)C(=O)NCC(=O)N[C@@H](C)C(=O)N[C@@H](CC(N)=O)C(=O)N[C@@H](CC(C)C)C(=O)N[C@@H](CC(C)C)C(=O)NCC(=O)NCC(=O)N[C@H](C(=O)N1CCC[C@H]1C(=O)N[C@@H](CCC(N)=O)C(=O)N[C@@H](CCC(N)=O)C(=O)O)[C@@H](C)O [CPF (II)] (H-GFASFLGKALKAALKIGANLLGGTPQQ-OH) | 2 µg/mL |

From patent EP0440688B1, “CPF PEPTIDE COMPOSITIONS AND USES” (THE CHILDREN'S HOSPITAL OF PHILADELPHIA, priority 1988, dated 1994)
